In article PMC5976665, “Identification of a peptide for folate receptor alpha by phage display and its tumor targeting activity in ovary cancer xenograft” (Scientific Reports, 2018):
No constants are given. Whether binding was seen depends on the method and setting. Some binding calls cover weakened binding; strength is not graded here.

Amino acid sequences for entries named in this document (tags omitted). Residues count along the entry.
UniProt P15328, residues 25-234: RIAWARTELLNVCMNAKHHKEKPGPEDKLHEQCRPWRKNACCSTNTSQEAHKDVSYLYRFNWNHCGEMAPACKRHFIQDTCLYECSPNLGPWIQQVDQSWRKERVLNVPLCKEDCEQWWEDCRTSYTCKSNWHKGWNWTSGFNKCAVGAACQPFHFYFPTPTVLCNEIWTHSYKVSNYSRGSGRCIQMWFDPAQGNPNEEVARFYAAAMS

Legend:
[1] = target: Recombinant human folate receptor alpha (FRα) (human) (UniProt P15328); assay: ELISA; phage ELISA: recombinant FRα coated on 96-well plates (100 µL, 10 µg/mL, 0.05 M sodium bicarbonate pH 9.6), blocked with 3% BSA; 10^10 amplified phages per well, 2 h at 37 °C; detected with HRP-conjugated anti-M13 antibody, absorbance at 450 nm; compared with wild-type M13; only the target purified
[2] = target: Native human folate receptor alpha (FRα) on SKOV3 cells (human (endogenous in SKOV3)) (UniProt P15328); assay: ELISA; cell-based ELISA: SKOV3 cells (FRα positive) and HepG2 cells (FRα negative control) in 96-well plates, fixed with 4% paraformaldehyde, blocked with 3% BSA; 10^10 individual phages per well, 2 h at 37 °C; detected with HRP-conjugated anti-M13 IgG

Row | Binder | binding [1] | binding [2]
1 | TAAQWFPSLSNN [Phage clone A12] | binds | –
2 | WSAATVPRGFHA [Phage clone B7] | binds | –
3 | FSQATGRSPTTL [Phage clone A4] | binds | –
4 | LGISATNAYARH [Phage clone A3] | binds | –
5 | ASVLDYKGFFQR [Phage clone A7] | binds | –
6 | SGVYKVAYDWQH [Phage clone G1/G10] | binds | –
7 | MHTAPGWGYRLS (dodecapeptide selected by phage display; printed in three-letter code; the synthetic FITC peptide is m18; also called C7 phage clone; source: M13 phage clone from the Ph.D.-12 library, amplified in E. coli ER2738; purified phage for flow cytometry) [Phage clone C7] | binds | binds
8 | NWQPTAGLKPLH [Phage clone B1] | binds | –
9 | GALLPSMNKGHW (dodecapeptide selected by phage display; printed in three-letter code; source: M13 phage clone from the Ph.D.-12 library, amplified in E. coli ER2738; purified phage for flow cytometry) [Phage clone B8/H1/G4] | binds | binds
10 | FFPLTFPWTYYD [Phage clone E9] | binds | –
11 | SNSDAYALQFLR [Phage clone C1] | binds | –
12 | YTNPYYSSHTRN (dodecapeptide selected by phage display; printed in three-letter code; source: M13 phage clone from the Ph.D.-12 library, amplified in E. coli ER2738; purified phage for flow cytometry) [Phage clone G8] | binds | binds
13 | MNPYPRTPWPHV (dodecapeptide selected by phage display; printed in three-letter code; source: M13 phage clone from the Ph.D.-12 library, amplified in E. coli ER2738; purified phage for flow cytometry) [Phage clone G12] | binds | binds
14 | VHWDFRQWWQPS [Phage clone G9, D5] | binds | –
15 | RGMDTLWHHAYH [Phage clone H11] | binds | –
